Data on one compound can be found in PMC10916352, “Safety Evaluation of a Prototypical Diazirine-Based Covalent Crosslinker and Molecular Adhesive” (International Journal of Toxicology, 2023).

The subject of the series is EpiDerm Skin Model (human-derived epidermal keratinocytes). Kind of series: In vitro skin corrosion test, MTT viability.

Regarding `FC(F)(F)C1(c2ccc(C(c3ccc(C4(C(F)(F)F)N=N4)cc3)(C(F)(F)F)C(F)(F)F)cc2)N=N1` [BondLynx, 2,2-bis-[4-[3-(trifluoromethyl)-3H-diazirin-3-yl]phenyl]hexafluoropropane], the “Colour interference, corrected OD570” value (BondLynx added to Milli-Q water) is given as “.0041”. The “Direct MTT reduction” value (mixed with MTT, colour change check) is recorded as “did not directly reduce MTT”.
